Measurements published in the M2OR odorant receptor database.
The entries are a selection whose mix differs from that of the whole data set. Calls are pooled over several reports, among them a noisy single-well screen. The list shows a part of the results.

Chains of the proteins cited; added tags and fusions are not shown. A line that says so, or that is headed by a name, gives the form on record, which may keep a tag or linker.
O14J1, as listed by the source: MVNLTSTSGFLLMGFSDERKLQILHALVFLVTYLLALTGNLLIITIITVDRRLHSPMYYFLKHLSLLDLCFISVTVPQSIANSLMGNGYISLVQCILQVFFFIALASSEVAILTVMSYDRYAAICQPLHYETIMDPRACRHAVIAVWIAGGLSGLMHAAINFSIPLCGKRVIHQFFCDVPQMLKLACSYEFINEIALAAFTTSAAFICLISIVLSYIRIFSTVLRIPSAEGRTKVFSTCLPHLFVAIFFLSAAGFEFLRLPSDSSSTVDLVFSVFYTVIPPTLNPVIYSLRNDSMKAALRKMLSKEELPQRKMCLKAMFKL
O2A25, as listed by the source: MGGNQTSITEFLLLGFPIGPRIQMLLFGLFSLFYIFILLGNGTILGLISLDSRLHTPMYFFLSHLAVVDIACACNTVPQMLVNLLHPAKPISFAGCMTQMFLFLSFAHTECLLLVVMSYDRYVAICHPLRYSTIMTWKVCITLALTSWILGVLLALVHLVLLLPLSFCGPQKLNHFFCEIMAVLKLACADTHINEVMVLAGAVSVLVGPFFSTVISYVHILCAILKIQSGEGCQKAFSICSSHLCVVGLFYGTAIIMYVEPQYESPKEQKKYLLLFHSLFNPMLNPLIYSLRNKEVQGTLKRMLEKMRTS
O14AG, as listed by the source: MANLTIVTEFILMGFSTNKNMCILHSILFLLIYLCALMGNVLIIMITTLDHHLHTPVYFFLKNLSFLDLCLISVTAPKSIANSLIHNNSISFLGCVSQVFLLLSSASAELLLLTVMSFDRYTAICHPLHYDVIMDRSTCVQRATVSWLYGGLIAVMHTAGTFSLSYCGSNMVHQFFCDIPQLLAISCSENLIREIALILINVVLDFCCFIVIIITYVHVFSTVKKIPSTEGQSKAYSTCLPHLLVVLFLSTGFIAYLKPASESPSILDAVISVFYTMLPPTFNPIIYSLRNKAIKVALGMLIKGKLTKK

Key:
Settings in all cases: stereoisomer not certain
[1] = tested on: T1, O14A2
T1 sequence (whole entry): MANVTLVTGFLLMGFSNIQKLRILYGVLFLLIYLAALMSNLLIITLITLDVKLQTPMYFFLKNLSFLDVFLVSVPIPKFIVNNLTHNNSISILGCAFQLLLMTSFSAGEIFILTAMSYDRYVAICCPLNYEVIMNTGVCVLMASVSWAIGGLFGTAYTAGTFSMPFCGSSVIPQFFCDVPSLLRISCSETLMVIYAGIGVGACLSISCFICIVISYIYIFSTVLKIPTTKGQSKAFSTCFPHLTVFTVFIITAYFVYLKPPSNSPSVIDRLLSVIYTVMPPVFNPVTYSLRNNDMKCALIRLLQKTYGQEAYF
In short: (§1)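 Each receptor–molecule pair is labelled responsive or non-responsive (inactive) according to whether the original authors judged the measured signal statistically different from baseline. The data were taken from the main text and supplementary material of published papers and checked for typos and inconsistencies. Assay methods differed by source, with transient luciferase assays in mammalian cell lines being common.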

[2] = tested on: T2, O14AG
T2 sequence (whole entry): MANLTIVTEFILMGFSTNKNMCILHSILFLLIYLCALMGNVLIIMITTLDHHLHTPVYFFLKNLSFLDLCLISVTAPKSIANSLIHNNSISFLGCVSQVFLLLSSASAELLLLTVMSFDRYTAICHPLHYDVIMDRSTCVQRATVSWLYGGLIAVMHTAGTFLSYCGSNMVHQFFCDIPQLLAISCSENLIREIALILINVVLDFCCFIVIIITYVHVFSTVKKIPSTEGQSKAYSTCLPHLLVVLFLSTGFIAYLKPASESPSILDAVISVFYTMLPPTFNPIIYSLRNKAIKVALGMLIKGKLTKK
In short: as §1

[3] = tested on: T3, O14CZ
T3 sequence (whole entry): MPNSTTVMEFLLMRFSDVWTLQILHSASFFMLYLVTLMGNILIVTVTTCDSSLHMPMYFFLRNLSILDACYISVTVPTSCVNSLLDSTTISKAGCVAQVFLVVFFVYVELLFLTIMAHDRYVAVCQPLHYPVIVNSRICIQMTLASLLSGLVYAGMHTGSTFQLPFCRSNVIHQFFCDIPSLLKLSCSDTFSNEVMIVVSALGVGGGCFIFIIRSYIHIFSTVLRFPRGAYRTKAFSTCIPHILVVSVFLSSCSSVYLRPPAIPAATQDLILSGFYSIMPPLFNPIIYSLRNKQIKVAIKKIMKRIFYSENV
In short: as §1

[4] = tested on: T4, O14I1
T4 sequence (whole entry): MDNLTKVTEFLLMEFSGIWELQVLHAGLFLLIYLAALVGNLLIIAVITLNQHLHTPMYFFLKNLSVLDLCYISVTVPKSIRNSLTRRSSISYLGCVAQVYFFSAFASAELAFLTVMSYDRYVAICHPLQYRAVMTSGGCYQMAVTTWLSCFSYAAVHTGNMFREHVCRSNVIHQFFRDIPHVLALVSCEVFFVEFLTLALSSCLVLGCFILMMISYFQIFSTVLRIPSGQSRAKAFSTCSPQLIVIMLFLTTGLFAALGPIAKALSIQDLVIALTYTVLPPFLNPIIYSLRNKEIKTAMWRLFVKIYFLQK
In short: as §1

[5] = tested on: T5, O14J1
T5 sequence (whole entry): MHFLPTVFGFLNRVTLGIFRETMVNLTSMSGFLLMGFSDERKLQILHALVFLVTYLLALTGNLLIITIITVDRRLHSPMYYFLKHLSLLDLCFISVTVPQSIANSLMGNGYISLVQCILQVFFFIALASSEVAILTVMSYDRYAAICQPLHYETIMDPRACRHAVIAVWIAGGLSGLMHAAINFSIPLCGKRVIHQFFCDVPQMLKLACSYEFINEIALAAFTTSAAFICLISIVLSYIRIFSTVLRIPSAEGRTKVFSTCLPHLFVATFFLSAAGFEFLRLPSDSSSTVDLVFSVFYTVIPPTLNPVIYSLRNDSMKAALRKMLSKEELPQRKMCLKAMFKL
In short: as §1

[6] = tested on: T6, O14K1
T6 sequence (whole entry): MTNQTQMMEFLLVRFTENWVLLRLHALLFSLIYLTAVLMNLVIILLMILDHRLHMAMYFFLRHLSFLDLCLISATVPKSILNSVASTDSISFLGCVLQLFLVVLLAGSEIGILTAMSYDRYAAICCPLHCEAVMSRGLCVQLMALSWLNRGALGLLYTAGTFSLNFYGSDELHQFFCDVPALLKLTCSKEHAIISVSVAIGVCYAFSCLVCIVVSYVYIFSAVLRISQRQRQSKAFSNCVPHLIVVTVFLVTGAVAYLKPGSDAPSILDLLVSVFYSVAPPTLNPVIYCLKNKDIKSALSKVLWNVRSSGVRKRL
In short: as §1

[7] = tested on: T7, O14L1
T7 sequence (whole entry): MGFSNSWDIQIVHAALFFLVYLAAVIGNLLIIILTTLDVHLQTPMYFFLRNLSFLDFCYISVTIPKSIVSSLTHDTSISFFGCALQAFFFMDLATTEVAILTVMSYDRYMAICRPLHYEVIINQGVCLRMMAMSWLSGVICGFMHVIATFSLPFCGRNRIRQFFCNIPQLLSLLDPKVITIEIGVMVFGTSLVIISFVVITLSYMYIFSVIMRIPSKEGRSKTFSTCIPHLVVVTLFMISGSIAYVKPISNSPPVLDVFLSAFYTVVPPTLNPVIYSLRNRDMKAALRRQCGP
In short: as §1

[8] = tested on: T8, O2A14
T8 sequence (whole entry): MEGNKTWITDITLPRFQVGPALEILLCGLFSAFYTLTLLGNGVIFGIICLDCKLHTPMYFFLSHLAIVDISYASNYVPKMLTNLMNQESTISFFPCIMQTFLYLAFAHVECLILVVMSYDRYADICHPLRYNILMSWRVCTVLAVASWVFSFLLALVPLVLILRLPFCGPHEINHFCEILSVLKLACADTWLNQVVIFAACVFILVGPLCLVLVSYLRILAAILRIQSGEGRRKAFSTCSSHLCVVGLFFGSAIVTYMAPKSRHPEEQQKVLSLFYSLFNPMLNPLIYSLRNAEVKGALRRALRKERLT
In short: as §1

[9] = tested on: T9, O2AE1
T9 sequence (whole entry): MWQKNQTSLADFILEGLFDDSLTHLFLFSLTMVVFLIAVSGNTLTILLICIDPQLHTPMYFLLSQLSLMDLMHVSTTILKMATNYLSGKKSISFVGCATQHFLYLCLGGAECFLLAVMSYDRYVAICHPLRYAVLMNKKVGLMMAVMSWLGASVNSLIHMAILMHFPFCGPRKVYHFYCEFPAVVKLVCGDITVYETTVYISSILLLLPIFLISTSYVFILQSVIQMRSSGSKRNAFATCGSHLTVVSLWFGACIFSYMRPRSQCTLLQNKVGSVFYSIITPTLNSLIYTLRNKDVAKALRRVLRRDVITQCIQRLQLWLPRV
In short: as §1

[10] = tested on: T10, O2AG2
T10 sequence (whole entry): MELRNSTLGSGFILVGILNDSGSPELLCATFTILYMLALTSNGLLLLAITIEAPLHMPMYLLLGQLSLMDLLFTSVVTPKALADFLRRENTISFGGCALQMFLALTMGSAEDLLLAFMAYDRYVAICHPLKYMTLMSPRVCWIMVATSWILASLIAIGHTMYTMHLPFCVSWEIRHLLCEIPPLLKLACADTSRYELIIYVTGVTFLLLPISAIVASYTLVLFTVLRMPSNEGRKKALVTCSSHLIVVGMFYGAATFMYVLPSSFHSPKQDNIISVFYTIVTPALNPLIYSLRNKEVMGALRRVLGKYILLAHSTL
In short: as §1

[11] = tested on: T11, O2AJ1
T11 sequence (whole entry): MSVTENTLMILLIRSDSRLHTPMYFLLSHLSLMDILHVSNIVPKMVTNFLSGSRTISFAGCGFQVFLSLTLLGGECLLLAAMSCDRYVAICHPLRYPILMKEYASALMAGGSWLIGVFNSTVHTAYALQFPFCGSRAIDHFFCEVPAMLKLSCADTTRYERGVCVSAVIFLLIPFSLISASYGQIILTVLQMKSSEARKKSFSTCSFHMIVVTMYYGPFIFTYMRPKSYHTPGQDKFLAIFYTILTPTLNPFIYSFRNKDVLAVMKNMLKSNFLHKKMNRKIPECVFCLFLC
In short: as §1

[12] = tested on: T12, O2AK2
T12 sequence (whole entry): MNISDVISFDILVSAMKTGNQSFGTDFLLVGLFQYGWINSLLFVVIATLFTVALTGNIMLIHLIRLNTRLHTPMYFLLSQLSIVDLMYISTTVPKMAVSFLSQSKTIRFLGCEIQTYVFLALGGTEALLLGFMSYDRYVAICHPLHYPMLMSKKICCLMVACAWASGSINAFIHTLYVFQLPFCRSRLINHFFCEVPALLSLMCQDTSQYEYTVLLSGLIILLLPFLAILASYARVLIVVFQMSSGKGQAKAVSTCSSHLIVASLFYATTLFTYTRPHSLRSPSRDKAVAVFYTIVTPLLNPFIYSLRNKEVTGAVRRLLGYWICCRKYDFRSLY
In short: as §1

[13] = tested on: O14AG; remark: listed apart in the source
In short: as §1

[14] = tested on: O14AG; remark: listed apart in the source
In short: as §1

[15] = tested on: O2A25
In short: as §1

[16] = tested on: O2A25; remark: listed apart in the source
In short: as §1

[17] = tested on: O2A25; remark: listed apart in the source
In short: as §1

[18] = tested on: O2A25; remark: listed apart in the source
In short: as §1

[19] = tested on: O14J1; remark: listed apart in the source
In short: as §1

[20] = tested on: O14J1; remark: listed apart in the source
In short: as §1
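Note: active if original authors judged signal statistically different from baseline.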

SMILES	odorant receptor agonist call [1]	odorant receptor agonist call [2]	odorant receptor agonist call [3]	odorant receptor agonist call [4]	odorant receptor agonist call [5]	odorant receptor agonist call [6]	odorant receptor agonist call [7]	odorant receptor agonist call [8]	odorant receptor agonist call [9]	odorant receptor agonist call [10]	odorant receptor agonist call [11]	odorant receptor agonist call [12]	odorant receptor agonist call [13]	odorant receptor agonist call [14]	odorant receptor agonist call [15]	odorant receptor agonist call [16]	odorant receptor agonist call [17]	odorant receptor agonist call [18]	odorant receptor agonist call [19]	odorant receptor agonist call [20]
CC12C=CCC1C1CCC3=CC(=O)CCC3(C)C1CC2 (configuration not stated)	inactive	inactive	inactive	inactive	inactive	inactive	inactive	inactive	inactive	inactive	inactive	inactive								
c1cnccn1	inactive	inactive	inactive	inactive	inactive	inactive	inactive	inactive	inactive	inactive	inactive	inactive								
C=CCc1ccc(OC)c(OC)c1	inactive	inactive	inactive	inactive	inactive	inactive	inactive	inactive	inactive	inactive	inactive	inactive								
O=C1CCCCCCCCCCCC(=O)OCCO1	inactive	inactive	inactive	inactive	inactive	inactive	inactive	inactive	inactive	inactive	inactive	inactive								
CC(=O)OCC=C(C)CCC=C(C)C	inactive	inactive	inactive	inactive	inactive	inactive	inactive	inactive	inactive	inactive	inactive	inactive	inactive	inactive	active	active	active	active		
CC(C)C(=O)O	inactive	inactive	inactive	inactive	inactive	inactive	inactive	inactive	inactive	inactive	inactive	inactive								
CC(C)=CCCC(C)=CC=O	inactive	inactive	inactive	inactive	inactive	inactive	inactive	inactive	inactive	inactive	inactive	inactive								
CC(=O)OC(C)(C)C1CC=C(C)CC1 (configuration not stated)	inactive	inactive	inactive	inactive	inactive	inactive	inactive	inactive	inactive	inactive	inactive	inactive								
CCCCCC(=O)O	inactive	inactive	inactive	inactive	inactive	inactive	inactive	inactive	inactive	inactive	inactive	inactive								
CCCCO	inactive	inactive	inactive	inactive	inactive	inactive	inactive	inactive	inactive	inactive	inactive	inactive								
CCC=CCCO	inactive	inactive	inactive	inactive	inactive	inactive	inactive	inactive	inactive	inactive	inactive	inactive							active	inactive
COc1cc(C=O)ccc1O	inactive	inactive	inactive	inactive	inactive	inactive	inactive	inactive	inactive	inactive	inactive	inactive								

Just odorant receptor agonist call [11], for two of the compounds above:
SMILES	odorant receptor agonist call [11]
CC(=O)OC(C)(C)C1CC=C(C)CC1 (configuration not stated)	inactive
CCCCO	inactive
